# For some of these results: For at least one compound, name, drawing or mass did not settle the structure. Some entries share one result that the patent states for a list of compounds.
# Legend:
# NIH3T3HER14 cells = assay: Growth factor-stimulated proliferation in NIH3T3HER14 cells (SRB); format: cell-based, mouse; details: serum-stimulated growth, NIH3T3HER14, 72 h
# Protocol: To study the effect of our compounds on growth factors stimulated proliferation, cells were grown to 70% confluence in 48-well plates and washed twice with PBS, after which they were exposed to serum-free medium for 18 h. The cells were then exposed to each drug and growth factors (EGF, TGFα, PDGF or serum) for 72 h and cell growth measured using the sulforhodamine B (SRB) assay (33). Briefly, following drug treatment, cells were fixed using 50 μl of cold trichloroacetic acid (50%) for 60 min at 4° C., washed five times with tap water, and stained for 30 min at room temperature with SRB (0.4%) dissolved in acetic acid (0.5%). The plates were rinsed five times with 1% acetic acid and allowed to air dry. […] Each point represents the average of at least two independent experiments run in triplicate.
# A431 cells = assay: Alkaline comet assay for DNA damage in A431 cells; details: A431, 30 min or 2 h exposure
# EGFR = EGFR (Homo sapiens, UniProt P00533); assay: Reverse EGFR autophosphorylation (reversibility) assay in A431 cells; format: cell-based; details: A431, 30 μM
# Protocol: To test this hypothesis, the reversibility assay (40, 41) was used, according to which the cells are treated with the drug for 90 min after which the culture medium is repeatedly removed and replaced 3 times, followed by the measurement of EGFR autophosphorylation.
# A431 cells were grown to confluence in 6-well plates and then incubated in serum-free medium for 18 h (41). Duplicate sets of cells were then treated with 30 μM of each compound for 90 min. One set of cells was then stimulated with EGF (100 ng/ml) for 10 min and extracts were made as described under the Western blotting procedure above. The other set of cells was washed free of each compound with warmed serum-free media and incubated for 2 h. Thereafter, the cells were washed, incubated for another 2 h, washed again, and then incubated for a further 4 h. This set of cells was then stimulated with EGF and extracts were prepared as for the first set.
SMILES,concentration giving 100% growth inhibition (NIH3T3HER14 cells),DNA damage (comet tail moment) (A431 cells),EGF-dependent EGFR autophosphorylation immediately after drug exposure (EGFR; 90 min),EGFR autophosphorylation activity restored (EGFR; 8 h post-treatment in drug-free medium after repeated washouts)
Nc1ccc2ncnc(Nc3cccc(Cl)c3)c2c1 [FD105],> 30 µM,,,
"Cn1nnc2c(C(N)=O)ncn2c1=O [TEM, temozolomide, reference compound]",,capable of inducing DNA damage in a dose-dependent manner,did not show any inhibitory activity,nor did it induce any effect

# Source: patent publication US7572798B2, “Combi-molecules having signal transduction inhibitory properties and DNA damaging properties” (McGill University, priority 2001, dated 2009)
